In the supplement of paper PMC12823440, “Inhibitors supercharge kinase turnover through native proteolytic circuits” (Nature, 2025):
Counter-ions that a name gives are not always drawn. This is one part of the list. Hit calls seldom repeat between salt and free forms of one compound.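 In K562 cells expressing nanoluciferase-fused kinases, luminescence was recorded at 4 h intervals between 2 and 18 h, normalized as percent of control with DMSO at 100% and a positive control at 0%. A significant (2 sigma) signal drop marks a time point as decreased. The authors' rule for a hit is not shown and takes in more than the number of time points.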

Amino acid sequences for entries named in this document (tags omitted). A change or cut given only in a name is not applied to a line headed by its entry.
UniProt O15530: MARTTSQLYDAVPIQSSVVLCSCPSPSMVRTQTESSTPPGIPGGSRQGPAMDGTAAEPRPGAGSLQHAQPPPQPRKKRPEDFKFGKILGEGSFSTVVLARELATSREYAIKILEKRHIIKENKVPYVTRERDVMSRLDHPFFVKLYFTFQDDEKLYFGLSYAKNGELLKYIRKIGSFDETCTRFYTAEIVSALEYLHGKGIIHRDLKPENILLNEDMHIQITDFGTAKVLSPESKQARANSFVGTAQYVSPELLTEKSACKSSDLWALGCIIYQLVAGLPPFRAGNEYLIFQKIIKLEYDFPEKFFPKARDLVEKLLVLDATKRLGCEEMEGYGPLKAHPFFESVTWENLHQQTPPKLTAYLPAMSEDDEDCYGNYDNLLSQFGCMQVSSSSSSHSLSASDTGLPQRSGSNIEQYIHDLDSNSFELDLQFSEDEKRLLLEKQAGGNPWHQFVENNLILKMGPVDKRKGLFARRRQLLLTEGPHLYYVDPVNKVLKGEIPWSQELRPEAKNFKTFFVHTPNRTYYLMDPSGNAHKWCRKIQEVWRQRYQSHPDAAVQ
UniProt Q9UBF8: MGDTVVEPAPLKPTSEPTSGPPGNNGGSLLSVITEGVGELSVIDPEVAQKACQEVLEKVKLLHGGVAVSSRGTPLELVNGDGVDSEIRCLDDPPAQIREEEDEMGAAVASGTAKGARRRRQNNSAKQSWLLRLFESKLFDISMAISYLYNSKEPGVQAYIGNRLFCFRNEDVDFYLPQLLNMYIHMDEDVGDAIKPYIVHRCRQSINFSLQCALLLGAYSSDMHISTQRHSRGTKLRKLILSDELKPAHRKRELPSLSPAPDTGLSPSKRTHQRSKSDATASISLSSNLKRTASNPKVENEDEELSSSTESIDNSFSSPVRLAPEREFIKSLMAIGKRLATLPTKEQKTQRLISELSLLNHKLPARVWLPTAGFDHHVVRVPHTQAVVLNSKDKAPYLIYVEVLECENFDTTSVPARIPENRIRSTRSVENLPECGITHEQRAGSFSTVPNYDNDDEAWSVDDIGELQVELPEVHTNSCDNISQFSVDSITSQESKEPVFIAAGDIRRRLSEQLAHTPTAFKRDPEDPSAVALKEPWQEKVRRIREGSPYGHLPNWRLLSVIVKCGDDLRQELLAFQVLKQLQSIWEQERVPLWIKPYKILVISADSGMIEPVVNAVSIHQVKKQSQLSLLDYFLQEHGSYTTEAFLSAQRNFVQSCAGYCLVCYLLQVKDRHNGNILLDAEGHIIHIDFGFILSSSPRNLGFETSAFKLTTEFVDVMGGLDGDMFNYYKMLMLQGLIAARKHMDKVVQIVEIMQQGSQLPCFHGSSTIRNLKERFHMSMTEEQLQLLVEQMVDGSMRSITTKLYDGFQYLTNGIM
UniProt P53350, whole entry: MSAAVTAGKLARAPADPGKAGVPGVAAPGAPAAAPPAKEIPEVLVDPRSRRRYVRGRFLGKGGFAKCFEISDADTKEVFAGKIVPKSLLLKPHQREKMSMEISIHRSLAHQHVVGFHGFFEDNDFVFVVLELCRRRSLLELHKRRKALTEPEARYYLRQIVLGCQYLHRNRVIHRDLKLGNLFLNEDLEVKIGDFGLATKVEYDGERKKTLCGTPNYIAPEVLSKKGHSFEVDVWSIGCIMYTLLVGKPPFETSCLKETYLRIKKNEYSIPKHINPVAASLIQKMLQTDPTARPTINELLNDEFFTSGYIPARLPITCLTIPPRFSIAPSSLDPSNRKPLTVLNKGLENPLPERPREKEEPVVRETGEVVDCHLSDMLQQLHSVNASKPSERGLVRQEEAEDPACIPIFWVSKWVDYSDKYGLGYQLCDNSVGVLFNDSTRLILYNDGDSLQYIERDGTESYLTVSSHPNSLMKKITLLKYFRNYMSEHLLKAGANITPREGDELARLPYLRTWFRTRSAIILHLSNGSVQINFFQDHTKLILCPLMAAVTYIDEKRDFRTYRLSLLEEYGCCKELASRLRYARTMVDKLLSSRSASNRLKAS
UniProt Q05397, whole entry, looked up: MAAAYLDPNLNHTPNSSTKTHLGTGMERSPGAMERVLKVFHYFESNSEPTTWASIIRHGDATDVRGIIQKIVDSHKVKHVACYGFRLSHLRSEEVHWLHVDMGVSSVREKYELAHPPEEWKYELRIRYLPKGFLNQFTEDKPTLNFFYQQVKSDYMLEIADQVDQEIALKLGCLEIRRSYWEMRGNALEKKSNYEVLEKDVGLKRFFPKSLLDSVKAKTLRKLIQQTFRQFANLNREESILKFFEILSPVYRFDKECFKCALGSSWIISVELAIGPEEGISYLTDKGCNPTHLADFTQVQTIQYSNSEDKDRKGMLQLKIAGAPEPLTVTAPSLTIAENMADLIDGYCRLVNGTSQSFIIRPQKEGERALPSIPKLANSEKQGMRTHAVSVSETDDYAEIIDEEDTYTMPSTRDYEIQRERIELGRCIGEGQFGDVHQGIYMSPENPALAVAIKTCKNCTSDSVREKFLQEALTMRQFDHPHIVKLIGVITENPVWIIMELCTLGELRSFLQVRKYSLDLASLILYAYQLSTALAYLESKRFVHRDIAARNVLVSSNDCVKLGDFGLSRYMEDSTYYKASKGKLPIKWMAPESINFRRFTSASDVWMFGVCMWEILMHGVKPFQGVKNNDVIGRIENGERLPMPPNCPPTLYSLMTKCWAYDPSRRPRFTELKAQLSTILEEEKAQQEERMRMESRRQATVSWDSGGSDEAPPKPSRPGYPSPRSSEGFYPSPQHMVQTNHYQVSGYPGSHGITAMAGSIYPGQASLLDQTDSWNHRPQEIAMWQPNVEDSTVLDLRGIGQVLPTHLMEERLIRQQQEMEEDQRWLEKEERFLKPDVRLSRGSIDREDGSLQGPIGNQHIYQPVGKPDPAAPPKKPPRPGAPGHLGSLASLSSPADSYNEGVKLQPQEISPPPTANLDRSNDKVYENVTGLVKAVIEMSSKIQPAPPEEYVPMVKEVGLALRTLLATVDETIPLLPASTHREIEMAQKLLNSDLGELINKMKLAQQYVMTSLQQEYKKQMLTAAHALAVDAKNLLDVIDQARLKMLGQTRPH
UniProt Q14289, whole entry, looked up: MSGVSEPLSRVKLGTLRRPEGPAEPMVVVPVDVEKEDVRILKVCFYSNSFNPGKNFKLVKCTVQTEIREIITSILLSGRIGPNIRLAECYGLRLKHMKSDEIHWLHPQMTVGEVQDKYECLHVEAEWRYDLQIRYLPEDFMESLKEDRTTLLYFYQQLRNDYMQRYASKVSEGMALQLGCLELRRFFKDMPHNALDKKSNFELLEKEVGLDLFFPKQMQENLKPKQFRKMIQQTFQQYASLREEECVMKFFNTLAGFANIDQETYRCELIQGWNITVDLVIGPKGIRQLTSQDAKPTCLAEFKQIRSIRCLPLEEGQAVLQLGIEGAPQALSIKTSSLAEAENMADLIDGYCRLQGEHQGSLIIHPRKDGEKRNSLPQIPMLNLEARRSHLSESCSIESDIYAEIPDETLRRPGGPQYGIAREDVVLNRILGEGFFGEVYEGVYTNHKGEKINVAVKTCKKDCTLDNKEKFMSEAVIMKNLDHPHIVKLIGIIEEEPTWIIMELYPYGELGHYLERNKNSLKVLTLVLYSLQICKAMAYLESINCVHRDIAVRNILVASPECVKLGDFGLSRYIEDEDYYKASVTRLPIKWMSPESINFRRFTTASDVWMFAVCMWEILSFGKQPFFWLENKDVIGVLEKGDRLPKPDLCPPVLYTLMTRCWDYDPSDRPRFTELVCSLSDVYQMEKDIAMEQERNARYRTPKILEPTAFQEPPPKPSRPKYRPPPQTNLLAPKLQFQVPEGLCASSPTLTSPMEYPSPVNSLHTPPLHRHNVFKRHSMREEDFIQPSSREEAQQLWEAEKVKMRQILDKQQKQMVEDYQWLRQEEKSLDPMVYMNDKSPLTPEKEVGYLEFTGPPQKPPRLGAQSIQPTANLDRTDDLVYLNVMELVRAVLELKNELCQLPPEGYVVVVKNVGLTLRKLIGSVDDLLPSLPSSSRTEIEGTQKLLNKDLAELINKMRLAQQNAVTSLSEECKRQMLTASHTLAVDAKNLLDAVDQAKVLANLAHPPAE
UniProt Q9BRS2: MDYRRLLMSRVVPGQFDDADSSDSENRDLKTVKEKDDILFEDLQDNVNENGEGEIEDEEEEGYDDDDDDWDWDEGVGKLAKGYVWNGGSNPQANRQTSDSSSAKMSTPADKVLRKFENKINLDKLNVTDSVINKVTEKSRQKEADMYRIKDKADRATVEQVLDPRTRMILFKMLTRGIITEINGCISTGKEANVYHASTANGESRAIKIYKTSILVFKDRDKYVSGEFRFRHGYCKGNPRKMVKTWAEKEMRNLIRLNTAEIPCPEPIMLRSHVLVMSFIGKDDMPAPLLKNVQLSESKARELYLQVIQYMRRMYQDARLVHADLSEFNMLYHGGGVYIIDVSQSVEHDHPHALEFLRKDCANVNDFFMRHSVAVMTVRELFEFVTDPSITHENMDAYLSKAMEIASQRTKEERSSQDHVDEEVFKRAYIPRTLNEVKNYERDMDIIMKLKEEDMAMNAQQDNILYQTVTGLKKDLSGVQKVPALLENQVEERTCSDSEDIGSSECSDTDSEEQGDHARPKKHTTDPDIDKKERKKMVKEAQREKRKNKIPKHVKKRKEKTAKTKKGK
UniProt Q13546: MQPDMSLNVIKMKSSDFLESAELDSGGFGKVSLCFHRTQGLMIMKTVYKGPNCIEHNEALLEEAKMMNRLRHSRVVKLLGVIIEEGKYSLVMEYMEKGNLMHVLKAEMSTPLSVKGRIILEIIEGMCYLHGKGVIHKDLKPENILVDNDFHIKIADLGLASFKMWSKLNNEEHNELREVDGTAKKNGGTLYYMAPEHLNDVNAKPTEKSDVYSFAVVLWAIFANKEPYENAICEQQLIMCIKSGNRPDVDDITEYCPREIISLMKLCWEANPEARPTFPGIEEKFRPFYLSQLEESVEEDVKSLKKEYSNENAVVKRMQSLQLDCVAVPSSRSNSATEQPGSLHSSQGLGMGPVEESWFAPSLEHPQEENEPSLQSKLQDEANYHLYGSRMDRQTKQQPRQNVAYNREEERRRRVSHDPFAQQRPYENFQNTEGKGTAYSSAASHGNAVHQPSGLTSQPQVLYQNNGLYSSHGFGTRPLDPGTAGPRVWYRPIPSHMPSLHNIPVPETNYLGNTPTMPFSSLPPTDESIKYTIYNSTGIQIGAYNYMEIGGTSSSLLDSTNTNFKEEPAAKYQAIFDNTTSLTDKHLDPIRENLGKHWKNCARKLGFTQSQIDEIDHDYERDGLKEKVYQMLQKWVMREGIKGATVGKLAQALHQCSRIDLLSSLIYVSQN
UniProt Q9NYA1, whole entry: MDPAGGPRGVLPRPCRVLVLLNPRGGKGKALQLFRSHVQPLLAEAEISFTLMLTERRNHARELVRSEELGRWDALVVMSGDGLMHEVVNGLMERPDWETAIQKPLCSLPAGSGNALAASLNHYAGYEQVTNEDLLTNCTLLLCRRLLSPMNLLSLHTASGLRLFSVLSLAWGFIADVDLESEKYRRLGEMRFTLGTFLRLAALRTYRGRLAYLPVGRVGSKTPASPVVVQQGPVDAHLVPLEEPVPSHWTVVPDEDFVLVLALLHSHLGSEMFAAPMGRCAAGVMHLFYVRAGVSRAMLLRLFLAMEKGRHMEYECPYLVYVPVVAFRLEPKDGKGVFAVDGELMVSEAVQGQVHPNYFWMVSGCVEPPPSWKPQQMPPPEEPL

Tests used:
Experiment in all cases: kinase-Nluc reporter destabilization hit call (1 = scored as downregulated) (binary); higher = compound decreases kinase abundance
Conditions in all cases: K562, 2-18 h
[1] = biological target: PDPK1 (UniProt O15530)
[2] = biological target: PIK4CA (UniProt P42356)
[3] = biological target: PIK4CB (UniProt Q9UBF8)
[4] = biological target: PLK1 (UniProt P53350)
[5] = biological target: PRKAA1 (UniProt Q13131)
[6] = biological target: PRKCA (UniProt P17252)
[7] = biological target: PTK2 (UniProt Q05397)
[8] = biological target: PTK2B (UniProt Q14289)
[9] = biological target: RAF1 (UniProt P04049)
[10] = biological target: RAF1_S257L (clone: RAF1_mut) (UniProt P04049)
[11] = biological target: RET (UniProt P07949)
[12] = biological target: RET_M918T (clone: RET_mut) (UniProt P07949)
[13] = biological target: RIOK1 (UniProt Q9BRS2)
[14] = biological target: RIPK1 (UniProt Q13546)
[15] = biological target: RIPK2 (UniProt O43353)
[16] = biological target: ROR2 (UniProt Q01974)
[17] = biological target: RPS6KA1 (UniProt Q15418)
[18] = biological target: SPHK1 (UniProt Q9NYA1)
[19] = biological target: SRC (UniProt P12931)
[20] = biological target: STK24 (UniProt Q9Y6E0)

Measured: kinase-Nluc reporter destabilization hit call

CCS(=O)(=O)N1CCN(c2ccc(Nc3ncc(C(N)=O)c(NC4CC4)n3)cc2)CC1 [Cerdulatinib (hydrochloride)]
inactive: [1]; 10 µM 0 | [2]; 10 µM 0 | [3]; 10 µM 0 | [4]; 10 µM 0 | [5]; 10 µM 0 | [6]; 10 µM 0 | [7]; 10 µM 0 | [8]; 10 µM 0 | [9]; 10 µM 0 | [10]; 10 µM 0 | [11]; 10 µM 0 | [12]; 10 µM 0 | [13]; 10 µM 0 | [14]; 10 µM 0 | [15]; 10 µM 0 | [16]; 10 µM 0 | [17]; 10 µM 0 | [18]; 10 µM 0 | [19]; 10 µM 0 | [20]; 10 µM 0

C[C@H](Nc1cc(-c2cnn(C)c2)cc(Nc2cnccn2)n1)c1ccc(F)cc1 [Ilginatinib]
inactive: [1]; 2.5 µM 0 | [2]; 2.5 µM 0 | [3]; 2.5 µM 0 | [4]; 2.5 µM 0 | [5]; 2.5 µM 0 | [6]; 2.5 µM 0 | [7]; 2.5 µM 0 | [8]; 2.5 µM 0 | [9]; 2.5 µM 0 | [10]; 2.5 µM 0 | [11]; 2.5 µM 0 | [12]; 2.5 µM 0 | [13]; 2.5 µM 0 | [14]; 2.5 µM 0 | [15]; 2.5 µM 0 | [16]; 2.5 µM 0 | [17]; 2.5 µM 0 | [18]; 2.5 µM 0 | [19]; 2.5 µM 0 | [20]; 2.5 µM 0

C/C=C1\C(=O)C[C@H]2[C@@H]3CCC4=CC(=O)CC[C@]4(C)[C@H]3CC[C@]12C [(Z)-Guggulsterone]
inactive: [1]; 10 µM 0 | [2]; 10 µM 0 | [3]; 10 µM 0 | [5]; 10 µM 0 | [6]; 10 µM 0 | [7]; 10 µM 0 | [8]; 10 µM 0 | [9]; 10 µM 0 | [10]; 10 µM 0 | [11]; 10 µM 0 | [12]; 10 µM 0 | [13]; 10 µM 0 | [14]; 10 µM 0 | [15]; 10 µM 0 | [16]; 10 µM 0 | [17]; 10 µM 0 | [18]; 10 µM 0 | [19]; 10 µM 0 | [20]; 10 µM 0

C=CC(=O)Nc1cc(Nc2nccc(-c3cn(C)c4ccccc34)n2)c(OC)cc1N(C)CCN(C)C [Osimertinib (dimesylate)]
inactive: [1]; 2.5 µM 0 | [2]; 2.5 µM 0 | [3]; 2.5 µM 0 | [4]; 2.5 µM 0 | [5]; 2.5 µM 0 | [6]; 2.5 µM 0 | [7]; 2.5 µM 0 | [8]; 2.5 µM 0 | [9]; 2.5 µM 0 | [10]; 2.5 µM 0 | [11]; 2.5 µM 0 | [12]; 2.5 µM 0 | [13]; 2.5 µM 0 | [14]; 2.5 µM 0 | [15]; 2.5 µM 0 | [16]; 2.5 µM 0 | [17]; 2.5 µM 0 | [18]; 2.5 µM 0 | [19]; 2.5 µM 0 | [20]; 2.5 µM 0

CN(C)C(=O)c1cc2cnc(Nc3ccc(N4CCNCC4)cn3)nc2n1C1CCCC1 [Ribociclib succinate]
inactive: [1]; 10 µM 0 | [2]; 10 µM 0 | [3]; 10 µM 0 | [4]; 10 µM 0 | [5]; 10 µM 0 | [6]; 10 µM 0 | [7]; 10 µM 0 | [8]; 10 µM 0 | [9]; 10 µM 0 | [10]; 10 µM 0 | [11]; 10 µM 0 | [12]; 10 µM 0 | [13]; 10 µM 0 | [14]; 10 µM 0 | [15]; 10 µM 0 | [16]; 10 µM 0 | [17]; 10 µM 0 | [18]; 10 µM 0 | [19]; 10 µM 0 | [20]; 10 µM 0

CCc1nc(C(N)=O)c(Nc2ccc(N3CCC(N4CCN(C)CC4)CC3)c(OC)c2)nc1NC1CCOCC1 [Gilteritinib hemifumarate]
inactive: [1]; 2 µM 0 | [2]; 2 µM 0 | [3]; 2 µM 0 | [4]; 2 µM 0 | [5]; 2 µM 0 | [7]; 2 µM 0 | [8]; 2 µM 0 | [9]; 2 µM 0 | [10]; 2 µM 0 | [11]; 2 µM 0 | [12]; 2 µM 0 | [13]; 2 µM 0 | [14]; 2 µM 0 | [15]; 2 µM 0 | [16]; 2 µM 0 | [17]; 2 µM 0 | [18]; 2 µM 0 | [19]; 2 µM 0 | [20]; 2 µM 0

COc1ccc2c(c1)C(c1ccc(F)cc1)=C(CN1CCCC1)CO2 [AX-024 hydrochloride]
inactive: [1]; 10 µM 0 | [2]; 10 µM 0 | [3]; 10 µM 0 | [4]; 10 µM 0 | [5]; 10 µM 0 | [6]; 10 µM 0 | [7]; 10 µM 0 | [8]; 10 µM 0 | [9]; 10 µM 0 | [10]; 10 µM 0 | [11]; 10 µM 0 | [12]; 10 µM 0 | [13]; 10 µM 0 | [14]; 10 µM 0 | [15]; 10 µM 0 | [16]; 10 µM 0 | [17]; 10 µM 0 | [18]; 10 µM 0 | [19]; 10 µM 0 | [20]; 10 µM 0

O=C1Nc2ccccc2/C1=C/c1ccccn1 [(E/Z)-GSK-3β inhibitor 1]
inactive: [1]; 10 µM 0 | [2]; 10 µM 0 | [3]; 10 µM 0 | [4]; 10 µM 0 | [5]; 10 µM 0 | [6]; 10 µM 0 | [7]; 10 µM 0 | [8]; 10 µM 0 | [9]; 10 µM 0 | [10]; 10 µM 0 | [11]; 10 µM 0 | [12]; 10 µM 0 | [13]; 10 µM 0 | [14]; 10 µM 0 | [15]; 10 µM 0 | [16]; 10 µM 0 | [17]; 10 µM 0 | [18]; 10 µM 0 | [19]; 10 µM 0 | [20]; 10 µM 0

CN(C)C(=O)c1cc2cnc(Nc3ccc(N4CCNCC4)cn3)nc2n1C1CCCC1 [Ribociclib hydrochloride]
inactive: [1]; 2.5 µM 0 | [2]; 2.5 µM 0 | [3]; 2.5 µM 0 | [4]; 2.5 µM 0 | [5]; 2.5 µM 0 | [6]; 2.5 µM 0 | [7]; 2.5 µM 0 | [8]; 2.5 µM 0 | [9]; 2.5 µM 0 | [10]; 2.5 µM 0 | [11]; 2.5 µM 0 | [12]; 2.5 µM 0 | [13]; 2.5 µM 0 | [14]; 2.5 µM 0 | [15]; 2.5 µM 0 | [16]; 2.5 µM 0 | [17]; 2.5 µM 0 | [18]; 2.5 µM 0 | [19]; 2.5 µM 0 | [20]; 2.5 µM 0

COCCOc1cc(F)c2c(Nc3ccc(NC(=O)Cn4cc(C(C)C)nn4)cc3)ncnc2c1
inactive: [1]; 10 µM 0 | [2]; 10 µM 0 | [3]; 10 µM 0 | [4]; 10 µM 0 | [5]; 10 µM 0 | [6]; 10 µM 0 | [7]; 10 µM 0 | [8]; 10 µM 0 | [9]; 10 µM 0 | [10]; 10 µM 0 | [11]; 10 µM 0 | [12]; 10 µM 0 | [13]; 10 µM 0 | [14]; 10 µM 0 | [15]; 10 µM 0 | [16]; 10 µM 0 | [17]; 10 µM 0 | [18]; 10 µM 0 | [19]; 10 µM 0 | [20]; 10 µM 0

CNC(=O)c1ccccc1Nc1cc(Nc2ccc(N3CCOCC3)cc2OC)ncc1C(F)(F)F
inactive: [1]; 10 µM 0 | [2]; 10 µM 0 | [3]; 10 µM 0 | [4]; 10 µM 0 | [5]; 10 µM 0 | [6]; 10 µM 0 | [7]; 10 µM 0 | [8]; 10 µM 0 | [9]; 10 µM 0 | [10]; 10 µM 0 | [11]; 10 µM 0 | [12]; 10 µM 0 | [13]; 10 µM 0 | [14]; 10 µM 0 | [15]; 10 µM 0 | [16]; 10 µM 0 | [17]; 10 µM 0 | [18]; 10 µM 0 | [19]; 10 µM 0 | [20]; 10 µM 0

CN(C)C/C=C/C(=O)Nc1cc2c(Nc3ccc(F)c(Cl)c3)ncnc2cc1O[C@H]1CCOC1 [Afatinib]
inactive: [1]; 10 µM 0 | [2]; 10 µM 0 | [3]; 10 µM 0 | [4]; 10 µM 0 | [5]; 10 µM 0 | [6]; 10 µM 0 | [7]; 10 µM 0 | [8]; 10 µM 0 | [9]; 10 µM 0 | [10]; 10 µM 0 | [11]; 10 µM 0 | [12]; 10 µM 0 | [13]; 10 µM 0 | [14]; 10 µM 0 | [15]; 10 µM 0 | [16]; 10 µM 0 | [17]; 10 µM 0 | [18]; 10 µM 0 | [19]; 10 µM 0 | [20]; 10 µM 0

CCCC(=O)Nc1ncnc2c1ncn2[C@@H]1O[C@@H]2COP(=O)(O)O[C@H]2[C@H]1OC(=O)CCC [Bucladesine (sodium)]
inactive: [1]; 10 µM 0 | [2]; 10 µM 0 | [3]; 10 µM 0 | [4]; 10 µM 0 | [5]; 10 µM 0 | [6]; 10 µM 0 | [7]; 10 µM 0 | [8]; 10 µM 0 | [9]; 10 µM 0 | [10]; 10 µM 0 | [11]; 10 µM 0 | [12]; 10 µM 0 | [13]; 10 µM 0 | [14]; 10 µM 0 | [15]; 10 µM 0 | [16]; 10 µM 0 | [17]; 10 µM 0 | [18]; 10 µM 0 | [19]; 10 µM 0 | [20]; 10 µM 0

CS(=O)(=O)N1CCN(Cc2cc3nc(-c4cccc5[nH]ncc45)nc(N4CCOCC4)c3s2)CC1 [Pictilisib]
inactive: [1]; 10 µM 0 | [2]; 10 µM 0 | [3]; 10 µM 0 | [4]; 10 µM 0 | [5]; 10 µM 0 | [6]; 10 µM 0 | [7]; 10 µM 0 | [8]; 10 µM 0 | [9]; 10 µM 0 | [10]; 10 µM 0 | [11]; 10 µM 0 | [12]; 10 µM 0 | [13]; 10 µM 0 | [14]; 10 µM 0 | [15]; 10 µM 0 | [16]; 10 µM 0 | [17]; 10 µM 0 | [18]; 10 µM 0 | [19]; 10 µM 0 | [20]; 10 µM 0
